Results deposited as PubChem BioAssay AID1259405 (NCATS, 2018)
This is a random part of about 50,000 reagents tested. Over the whole deposit, about 4,000 (8%) got an active call. 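Mouse siRNA library applied to hamster cells; one well for each siRNA.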 A number with no mark means an inactive call. Reagents against one gene are numbered here. No sequences are given here.

Purpose: 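Knock-downs that lift recombinant protein yield in hamster ovary cells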 (primary screen)
Cells: Chinese hamster CHO-K1 ovary cells with stable secreted eGFP expression
Reagents: single siRNA against mouse genes, 0.8 pmol siRNA per well (2 µl of 400 nM stock)
Time to read-out: 3 days
Measurement: 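Per-well intracellular GFP measured by laser scanning cytometry, plus viability from ATP luminescence, each relative to plate median of non-targeting control wells, in %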
Direction: GFP, % of control: higher = more GFP per well, higher productivity; viability (ATP), % of control: higher = more viable cells (more ATP)
Call rule: 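a knock-down is called active if GFP reaches 120% or more of non-targeting control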

gene symbol | reagent | GFP, % of control | viability (ATP), % of control
Or6d15 (GeneID 258438) | 1 | 103 | 53.9
Or6d15 (GeneID 258438) | 2 | 102 | 63.2
Or6d15 (GeneID 258438) | 3 | 55.6 | 75.3
Mapt (GeneID 17762) | 1 | 112 | 92.8
Mapt (GeneID 17762) | 2 | 53.3 | 47.9
Mapt (GeneID 17762) | 3 | 69.9 | 83.4
Spon2 (GeneID 100689) | 1 | 151 (active) | 122
Spon2 (GeneID 100689) | 2 | 85.1 | 72.2
H1f8 (GeneID 171506) | 1 | 46.3 | 86.7
H1f8 (GeneID 171506) | 2 | 103 | 86.6
H1f8 (GeneID 171506) | 3 | 95.1 | 53.3
Proser3 (GeneID 333193) | 1 | 110 | 64.7
Proser3 (GeneID 333193) | 2 | 149 (active) | 94
Proser3 (GeneID 333193) | 3 | 83.9 | 52.1
Ube3b (GeneID 117146) | 1 | 166 (active) | 56
Ube3b (GeneID 117146) | 2 | 89 | 64.9
Ube3b (GeneID 117146) | 3 | 98.4 | 97.9
Dcdc5 (GeneID 329482) | 1 | 53.2 | 52.1
Dcdc5 (GeneID 329482) | 2 | 72.1 | 49
Dcdc5 (GeneID 329482) | 3 | 73.1 | 81.3
Rnf123 (GeneID 84585) | 1 | 97.1 | 96.9
Rnf123 (GeneID 84585) | 2 | 78.4 | 57.4
Rnf123 (GeneID 84585) | 3 | 71.2 | 64.1
Sncaip (GeneID 67847) | 1 | 81.4 | 83.4
Sncaip (GeneID 67847) | 2 | 68.7 | 81.6
Sncaip (GeneID 67847) | 3 | 47.7 | 42.3
Sla (GeneID 20491) | 1 | 113 | 96.6
Sla (GeneID 20491) | 2 | 72.1 | 77.2
Sla (GeneID 20491) | 3 | 45.8 | 44.5
Stard10 (GeneID 56018) | 1 | 79.6 | 62.1
Stard10 (GeneID 56018) | 2 | 73.1 | 81.4
Stard10 (GeneID 56018) | 3 | 48.4 | 41.1
Gabrd (GeneID 14403) | 1 | 68 | 87
Gabrd (GeneID 14403) | 2 | 112 | 103
Gabrd (GeneID 14403) | 3 | 65.6 | 46.6
